Test results reported in patent publication US20240029819A1, “AGENTS BINDING MODIFIED ANTIGEN PRESENTED PEPTIDES AND USE OF SAME” (Yeda Research and Development Co. Ltd., priority 2020, published 2024).

Target: HLA-A0201 (recombinant MHC allele, ProImmune REVEAL binding assay) (human)
Experiment: ProImmune REVEAL in-vitro MHC-peptide binding assay

Row | Binder | binding
1 | TLNSLIYTL […, unmodified form of SEQ ID NO: 10824] | binds
2 | KVMDEVAGI (methylated lysine at position 1, K(me)) [K(me)VMDEVAGI (SEQ ID NO: 9194 having the recited modification)] | binds
3 | TLIESKLPV (methylated lysine at position 6, K(me)) [TLIESK(me)LPV (SEQ ID NO: 10823 having the recited modification)] | binds
4 | TLIESKLPV [… (SEQ ID NO: 10823), unmodified form] | binds
5 | KVMDEVAGI […, unmodified form of SEQ ID NO: 9194] | binds

No constants are given. Whether binding was seen depends on the method and setting. Binding can be weak; no strength is given.
